Assay results taken from PubChem BioAssay AID212 (DTP/NCI, 2004).
The list shows only some results of the screen, not a fair sample: it gathers some chemical classes. Other doses and runs of a compound may be missing. T/C: endpoint of the treated group in % of that of the vehicle group. Schedule codes are those of the source, read here as Q, the interval in days (D) or hours (H), X, the number of doses. Some T/C values are followed by the survivors on the day toxicity was checked; where neither a count nor a note follows, no animal had died by that day. Some entries hold several experiments; the results are listed from low to high. Some doses have a count of surviving animals in place of a T/C: the source files T/C as zero there, which appears to mark a toxic dose or a test without result, not a measured value. Survivors were counted at the toxicity check; its day is shown where the source gives one, and later deaths do not show. Some complexes appear as separate parts, the way the source draws them; their charges need not add up.

Test system: BDF1 mice, colon carcinoma 38 sc, T/C %
Assay: NCI In Vivo Anticancer Drug Screen. Data for tumor model Colon Carcinoma 38 (subcutaneous) in B6D2F1 (BDF1) mice
Conditions: T/C endpoint: median tumor weight (est.), higher T/C = larger tumour
Method: The antitumor activity of compounds was measured in mice bearing transplantable tumors. Survival or tumor size were measured and the results are expressed as the measurement made in the treated group (T) divided by the measurement made in the vehicle treated control group (C). The tumor model used in this assay is Colon Carcinoma 38 (subcutaneous) in B6D2F1 (BDF1) mice

[1] = dose: 12.5 mg/kg/injection, schedule: Q07DX002 (ip), vehicle: saline with Tween-80, evaluated on day 20
[2] = dose: 25.0 mg/kg/injection, schedule: Q07DX002 (ip), vehicle: saline with Tween-80, evaluated on day 20
[3] = dose: 50.0 mg/kg/injection, schedule: Q07DX002 (ip), vehicle: saline with Tween-80, evaluated on day 20
[4] = dose: 100.0 mg/kg/injection, schedule: Q07DX002 (ip), vehicle: saline with Tween-80, evaluated on day 20
[5] = dose: 25.0 mg/kg/injection, schedule: Q07DX002 (ip), vehicle: saline, evaluated on day 20
[6] = dose: 50.0 mg/kg/injection, schedule: Q07DX002 (ip), vehicle: saline, evaluated on day 20
[7] = dose: 100.0 mg/kg/injection, schedule: Q07DX002 (ip), vehicle: saline, evaluated on day 20
[8] = dose: 12.5 mg/kg/injection, schedule: Q07DX002 (ip), vehicle: Klucel (hydroxypropylcellulose) (HPC), evaluated on day 20
[9] = dose: 50.0 mg/kg/injection, schedule: Q07DX002 (ip), vehicle: Klucel (hydroxypropylcellulose) (HPC), evaluated on day 20
[10] = dose: 100.0 mg/kg/injection, schedule: Q07DX002 (ip), vehicle: Klucel (hydroxypropylcellulose) (HPC), evaluated on day 20
[11] = dose: 200.0 mg/kg/injection, schedule: Q07DX002 (ip), vehicle: Klucel (hydroxypropylcellulose) (HPC), evaluated on day 20
[12] = dose: 400.0 mg/kg/injection, schedule: Q07DX002 (ip), vehicle: Klucel (hydroxypropylcellulose) (HPC), evaluated on day 20
[13] = dose: 25.0 mg/kg/injection, schedule: Q07DX002 (ip), vehicle: Klucel (hydroxypropylcellulose) (HPC), evaluated on day 20

## COc1cc2c(c3oc4cccc(O)c4c(=O)c13)[C@@H]1C=CO[C@@H]1O2
[1]
  T/C: 93 % of control
[2]
  T/C: 90 % of control
[3]
  T/C: 96 % of control [8 of 10 alive]
[4]
  T/C: 96 % of control
dose: 200.0 mg/kg/injection, schedule: Q07DX002 (ip), vehicle: saline with Tween-80, evaluated on day 20
  T/C: 110 % of control

## C[As](C)SC1OC(CO)C(O)C(O)C1O (configuration not stated)
dose: 6.25 mg/kg/injection, schedule: Q07DX002 (ip), vehicle: saline, evaluated on day 20
  T/C: 70 % of control
dose: 12.5 mg/kg/injection, schedule: Q07DX002 (ip), vehicle: saline, evaluated on day 20
  T/C: 72 and 88 % of control
[5]
  T/C: 65 [9 of 10 alive on day 20] and 95 % of control
[6]
  T/C: 54 and 81 % of control
[7]
  T/C: 80 and 99 % of control [9 of 10 alive on day 20]
dose: 200.0 mg/kg/injection, schedule: Q07DX002 (ip), vehicle: saline
  survivor count: 0 of 10 on day 20 and 1 of 10 on day 20

## Cc1ccc(Sc2ccc([N+](=O)[O-])cc2[N+](=O)[O-])c([N+](=O)[O-])c1
dose: 25.0 mg/kg/injection, schedule: Q07DX002 (ip), vehicle: saline, evaluated on day 21
  T/C: 63 % of control
dose: 50.0 mg/kg/injection, schedule: Q07DX002 (ip), vehicle: saline, evaluated on day 21
  T/C: 90 % of control
dose: 100.0 mg/kg/injection, schedule: Q07DX002 (ip), vehicle: saline, evaluated on day 21
  T/C: 70 % of control
dose: 200.0 mg/kg/injection, schedule: Q07DX002 (ip), vehicle: saline, evaluated on day 21
  T/C: 70 % of control
dose: 400.0 mg/kg/injection, schedule: Q07DX002 (ip), vehicle: saline, evaluated on day 21
  T/C: 59 % of control
dose: 800.0 mg/kg/injection, schedule: Q07DX002 (ip), vehicle: saline, evaluated on day 21
  T/C: 110 % of control

## Nc1cc([As]=O)ccc1O (configuration not stated)
dose: 6.25 mg/kg/injection, schedule: Q07DX002 (ip), vehicle: saline with Tween-80, evaluated on day 20
  T/C: 59 and 84 % of control
[1]
  T/C: 87 [9 of 10 alive on day 20] and 143 % of control
[2]
  T/C: 50 and 115 % of control
[3]
  T/C: 93 [8 of 10 alive on day 20] and 94 % of control
[4]
  T/C: 84 % of control
dose: 100.0 mg/kg/injection, schedule: Q07DX002 (ip), vehicle: saline with Tween-80
  survivor count: 2 of 10 on day 20
dose: 200.0 mg/kg/injection, schedule: Q07DX002 (ip), vehicle: saline with Tween-80
  survivor count: 0 of 10 on day 20

## Nc1ccc(N(CCCl)CCCl)cc1
dose: 1.0 mg/kg/injection, schedule: Q07DX002 (ip), vehicle: Klucel (hydroxypropylcellulose) (HPC), evaluated on day 20
  T/C: 73 % of control
dose: 2.0 mg/kg/injection, schedule: Q07DX002 (ip), vehicle: Klucel (hydroxypropylcellulose) (HPC), evaluated on day 20
  T/C: 125 % of control
dose: 4.0 mg/kg/injection, schedule: Q07DX002 (ip), vehicle: Klucel (hydroxypropylcellulose) (HPC), evaluated on day 20
  T/C: 59 % of control
dose: 8.0 mg/kg/injection, schedule: Q07DX002 (ip), vehicle: Klucel (hydroxypropylcellulose) (HPC)
  survivor count: 6 of 10 on day 20
dose: 16.0 mg/kg/injection, schedule: Q07DX002 (ip), vehicle: Klucel (hydroxypropylcellulose) (HPC)
  survivor count: 0 of 10 on day 20

## CC(=O)OC(SC(OC(C)=O)C(Cl)(Cl)Cl)C(Cl)(Cl)Cl (configuration not stated)
dose: 6.25 mg/kg/injection, schedule: Q07DX003 (ip), vehicle: saline with Tween-80, evaluated on day 20
  T/C: 140 % of control
[8]
  T/C: 121 % of control [9 of 10 alive]
dose: 12.5 mg/kg/injection, schedule: Q07DX003 (ip), vehicle: saline with Tween-80, evaluated on day 20
  T/C: 56 % of control
dose: 25.0 mg/kg/injection, schedule: Q07DX003 (ip), vehicle: saline with Tween-80, evaluated on day 20
  T/C: 58 % of control
[9]
  T/C: 112 % of control [9 of 10 alive]
dose: 50.0 mg/kg/injection, schedule: Q07DX003 (ip), vehicle: saline with Tween-80, evaluated on day 20
  T/C: 117 % of control
[10]
  T/C: 94 % of control [8 of 10 alive]
dose: 100.0 mg/kg/injection, schedule: Q07DX003 (ip), vehicle: saline with Tween-80, evaluated on day 20
  T/C: 84 % of control
[11]
  T/C: 95 % of control [9 of 10 alive]
dose: 200.0 mg/kg/injection, schedule: Q07DX003 (ip), vehicle: saline with Tween-80, evaluated on day 20
  T/C: 80 % of control
[12]
  T/C: 128 % of control [7 of 10 alive]

## CCCNC(=O)c1ccc(N(CCCl)CCCl)cc1
[13]
  T/C: 79 % of control
[9]
  T/C: 75 [9 of 10 alive on day 20] and 171 % of control
[10]
  T/C: 99 and 175 % of control
[11]
  T/C: 66 and 136 % of control [9 of 10 alive]
dose: 400.0 mg/kg/injection, schedule: Q07DX002 (ip), vehicle: Klucel (hydroxypropylcellulose) (HPC)
  survivor count: 0 of 10 on day 20

## CC1(C)CN1P(=O)(Nc1ncccn1)N1CC1(C)C (configuration not stated)
[5]
  T/C: 86 and 140 % of control
[6]
  T/C: 67 [7 of 10 alive on day 20] and 117 % of control
[7]
  T/C: 57 and 139 % of control
dose: 200.0 mg/kg/injection, schedule: Q07DX002 (ip), vehicle: saline, evaluated on day 20
  T/C: 77 and 88 % of control
dose: 400.0 mg/kg/injection, schedule: Q07DX002 (ip), vehicle: saline, evaluated on day 20
  T/C: 63 and 99 % of control [7 of 8 alive on day 20]
dose: 800.0 mg/kg/injection, schedule: Q07DX002 (ip), vehicle: saline, evaluated on day 20
  T/C: 52 % of control
dose: 800.0 mg/kg/injection, schedule: Q07DX002 (ip), vehicle: saline
  survivor count: 1 of 8 on day 20

## [Au].[C-]#N.[C-]#N
dose: 0.62 mg/kg/injection, schedule: Q07DX002 (ip), vehicle: saline, evaluated on day 20
  T/C: 79 % of control
dose: 1.25 mg/kg/injection, schedule: Q07DX002 (ip), vehicle: saline, evaluated on day 20
  T/C: 75 % of control
dose: 2.5 mg/kg/injection, schedule: Q07DX002 (ip), vehicle: saline, evaluated on day 20
  T/C: 78 % of control
dose: 5.0 mg/kg/injection, schedule: Q07DX002 (ip), vehicle: saline, evaluated on day 20
  T/C: 106 % of control
dose: 10.0 mg/kg/injection, schedule: Q07DX002 (ip), vehicle: saline, evaluated on day 20
  T/C: 74 % of control
dose: 20.0 mg/kg/injection, schedule: Q07DX002 (ip), vehicle: saline
  survivor count: 0 of 10 on day 20

## CC(=O)C1=CCCC2CCC1N2 (configuration not stated)
dose: 200.0 micrograms/kg/injection, schedule: Q07DX002 (ip), vehicle: saline + alcohol, evaluated on day 20
  T/C: 70 % of control
dose: 400.0 micrograms/kg/injection, schedule: Q07DX002 (ip), vehicle: saline + alcohol, evaluated on day 20
  T/C: 46 % of control
dose: 800.0 micrograms/kg/injection, schedule: Q07DX002 (ip), vehicle: saline + alcohol, evaluated on day 20
  T/C: 59 % of control

## ClP1(Cl)=NP(Cl)(Cl)=NP(Cl)(Cl)=NP(Cl)(Cl)=N1
[8]
  T/C: 117 and 147 % of control
[13]
  T/C: 88 and 107 % of control
[9]
  T/C: 92 and 119 % of control
[10]
  T/C: 98 and 129 % of control
[11]
  T/C: 85 and 114 % of control
[12]
  T/C: 92 [9 of 10 alive on day 20] and 99 % of control
